# Data published in patent publication US20260061068A1.
# Results are given in words; binding and its absence hold for the method and conditions named. Some entries that bind do so weakly or less than the wild type.
# What was measured:
# [1] = molecular target: cynomolgus CD19 (cynomolgus monkey); experiment: FACS on cynomolgus PBMC, B cell gate
# [2] = molecular target: cynomolgus CD19 (cynomolgus monkey); experiment: FACS on CHO cells transfected with cynomolgus CD19
Binder,binding [1],binding [2]
"F6 antibody (human IgG1 anti-CD19) (antibody, V domains shown) VH: EVQLVQSGAEVKKPGESLKISCKGSGYSFTSYWIGWVRQMPGKGLEWMGIIYPGDSDTRYSPSFQGQVTISADKSISTAYLQWSSLKASDTAMYYCARVWYYDFWSGADAFDIWGQGTLVTVSS VL: EIVMTQSPATLSVSPGERATLSCRASQSVSSNLAWYQQKPGQAPRLLIYGASTRATGIPARFSGSGSGTEFTLTISSLQSEDFAVYYCQQGSLEAPQTFGQGTKVEIK",binds,binds
"5F5 antibody (human IgG1 anti-CD19) (antibody, V domains shown) VH: EVQLVQSGAEVKKPGESLKISCKGSGYSFTSYWIGWVRQMPGKGLEWMGIIYPGDSDTRYSPSFQGQVTISADKSISTAYLQWSSLKASDTAMYYCARGISGIYNLHGFDIWGQGTLVTVSS VL: DIQMTQSPSSLSASVGDRVTITCRASQSISSYLNWYQQKPGKAPKLLIYAASSLQSGVPSRFSGSGSGTDFTLTISSLQPEDFATYYCQQASLDSPLTFGQGTKVEIK",binds,binds
"7F11 antibody (human IgG1 anti-CD19) (antibody, V domains shown) VH: EVQLVQSGAEVKKPGESLKISCKGSGYSFTSYWIGWVRQMPGKGLEWMGIIYPGDSDTRYSPSFQGQVTISADKSISTAYLQWSSLKASDTAMYYCARGVSGIYNLHGFDIWGQGTLVTVSS VL: DIQMTQSPSSLSASVGDRVTITCRASQSISSYLNWYQQKPGKAPKLLIYAASSLQSGVPSRFSGSGSGTDFTLTISSLQPEDFATYYCQQGMWDNPFTFGQGTKVEIK",binds,binds
"9G8 antibody (human IgG1 anti-CD19) (antibody, V domains shown) VH: EVQLVQSGAEVKKPGESLKISCKGSGYSFTSYWIGWVRQMPGKGLEWMGIIYPGDSDTRYSPSFQGQVTISADKSISTAYLQWSSLKASDTAMYYCARGVSGIYNLHGFDIWGQGTLVTVSS VL: DIQMTQSPSSLSASVGDRVTITCRASQSISSYLNWYQQKPGKAPKLLIYAASSLQSGVPSRFSGSGSGTDFTLTISSLQPEDFATYYCQQGRFGSPFTFGQGTKVEIK",binds,binds
